PubChem BioAssay AID504784 | Drosophila RNAi Screening Center, 2011
The screen tested about 17,000 reagents; shown is a random part of those that have a named target and a result. 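Each column is one replicate's B-score; the combined score over replicates was not deposited, so single values may mislead.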 Further read-outs or replicates are left out here. Reagent sequences are not shown.

Purpose: 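Fly genes whose silencing alters how much lipid cells keep in droplets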 (primary screen)
System: Drosophila Kc167 embryonic cells
Reagents: long dsRNA against Drosophila genes, about 250 ng dsRNA per well
Timing: 4 days
Treatment: cells fed 400 µM oleic acid bound to BSA
Detection: 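Microscope images give a droplet-to-nucleus area ratio, taken as log and converted to a screen-wide B-score; higher values mean greater lipid storage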
Direction: droplet/nuclear area B-score: higher = more stored lipid (overstorage)

predicted target	PubChem SID	droplet/nuclear area B-score, replicate 1
Rpi (GeneID 246599)	SID104184375	-0.821
CG31223 (GeneID 326127)	SID104194907	1.64
CG14434 (GeneID 31632)	SID104197719	-0.452
sip2 (GeneID 33979)	SID104182946	-1.11
CG13227 (GeneID 36179)	SID104186139	0.0199
CG1231 (GeneID 38060)	SID104188059	-0.956
CG14445 (GeneID 31556)	SID104197730	-1.23
mTerf5 (GeneID 42182)	SID104196001	-0.977
Or23a (GeneID 33450)	SID104180559	-0.73
Cul1 (GeneID 35742)	SID104187437	1.27
CG16813 (GeneID 34724)	SID104182312	-1.19
Arc1 (GeneID 36595)	SID104185951	-1.03
PIG-H (GeneID 40944)	SID104194648	0.177
Orai (GeneID 37040)	SID104201637	-0.296
CG17050 (retired record) (GeneID 36482)	SID104186443	-0.083
CG4712 (GeneID 36469)	SID104186674	0.0518
Ir56b (GeneID 37250)	SID104186335	1.59
CG30470 (retired record) (GeneID 246632)	SID104185345	-3.88
CG30470 (retired record) (GeneID 246632)	SID104186052	0.26
CG30470 (retired record) (GeneID 246632)	SID104186053	-2.58
CG30470 (retired record) (GeneID 246632)	SID104186569	1.49
CG30470 (retired record) (GeneID 246632)	SID104202540	-3.89
CAH15 (GeneID 37366)	SID104184326	0.828
CG34354 (GeneID 5740528)	SID104194307	2.52
CG34354 (GeneID 5740528)	SID104194350	-1.78
CG34354 (GeneID 5740528)	SID104195437	0.745
CG34354 (GeneID 5740528)	SID104202411	0.876
CG7914 (GeneID 32907)	SID104199860	0.0868
qkr58E-2 (GeneID 37562)	SID104184502	-2.07
CG33330 (retired record) (GeneID 2768667)	SID104192845	0.186
CG33330 (retired record) (GeneID 2768667)	SID104195287	-0.136
Csas (GeneID 317923)	SID104201869	0.902
natalisin (GeneID 5740700)	SID104194758	-0.613
natalisin (GeneID 5740700)	SID104194759	-2
Sbf (GeneID 41427)	SID104196644	-0.9
CG11600 (GeneID 41555)	SID104194124	0.0865
Cpr72Eb (GeneID 39815)	SID104189662	0.0971
Snap29 (GeneID 37774)	SID104184513	0.114
Saysd1 (GeneID 43029)	SID104194456	0.7
Fsn (GeneID 36460)	SID104186667	-0.415
Sk1 (GeneID 32089)	SID104199566	0.896
CG5065 (GeneID 36860)	SID104186704	-0.316
roh (GeneID 246602)	SID104183795	1.41
CG17191 (GeneID 43249)	SID104194977	0.912
mirr (GeneID 39441)	SID104191161	1.47
St3 (GeneID 37743)	SID104184297	0.0518
BomBc2 (GeneID 37102)	SID104186294	-0.683
Samtor (GeneID 37934)	SID104184182	0.0722
Cyp4e2 (GeneID 35822)	SID104187163	-0.133
alphaTub84B (GeneID 40848)	SID104192414	0.396
Pyroxd1 (GeneID 35296)	SID104181890	0.389
rut (GeneID 32406)	SID104200159	-0.21
rut (GeneID 32406)	SID104202333	-2.13
CG13510 (GeneID 37596)	SID104183944	1.91
CARPB (GeneID 31915)	SID104198229	-0.836
CARPB (GeneID 31915)	SID104198230	-0.0325

Entries above whose gene name starts with M or m (2):
predicted target	PubChem SID	droplet/nuclear area B-score, replicate 1
mTerf5 (GeneID 42182)	SID104196001	-0.977
mirr (GeneID 39441)	SID104191161	1.47
